From PMC12464775, “Selective and Potent Peptide Binders of RNF43 for Wnt Signaling Inhibition” (ACS Central Science, 2025)
No constants are given. Whether binding was seen depends on the method and setting. Some binding calls cover weakened binding; strength is not graded here.

Sequences of proteins named here, by UniProt entry; tags and fusion partners are left off. Residues count along the entry.
UniProt Q6UXX9, residues 22-243: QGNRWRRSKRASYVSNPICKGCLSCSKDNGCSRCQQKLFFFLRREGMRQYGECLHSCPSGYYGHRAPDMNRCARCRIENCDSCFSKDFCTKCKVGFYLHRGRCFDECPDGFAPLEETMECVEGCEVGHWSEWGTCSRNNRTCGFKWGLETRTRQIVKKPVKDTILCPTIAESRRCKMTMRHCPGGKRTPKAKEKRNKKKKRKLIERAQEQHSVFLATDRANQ

Molecular target: T1, extracellular domain (ECD) of the human RNF43 protein, biotinylated (human) (UniProt Q68DV7)
T1 sequence (chain, biotin (EZ-link-NHS-PEG4-biotin), 1–2 biotin molecules per protein): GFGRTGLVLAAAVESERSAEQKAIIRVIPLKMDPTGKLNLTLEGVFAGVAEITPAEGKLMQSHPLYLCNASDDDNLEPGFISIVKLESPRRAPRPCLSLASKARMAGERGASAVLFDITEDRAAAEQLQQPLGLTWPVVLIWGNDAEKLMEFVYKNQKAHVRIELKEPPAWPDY
Experiment: ELISA; competition: biotinylated RNF43 on neutravidin plate; 1 nM His-tagged RSPO2 mixed with 0–2 μM DCPs, 45 min at RT; bound RSPO2 detected with HRP-conjugated His antibody; both purified

- binding: binds
Substance: His-tagged RSPO2 (from UniProt Q6UXX9 22-243) (ligand)
